No constants are given. Whether binding was seen depends on the method and setting. Binding seen in cells or lysates may run through a third protein. Binding can be weak; no strength is given. Sequences can lack the tags named with a protein.

Sequences of proteins named here, by UniProt entry; tags and fusion partners are left off. A change or cut given only in a name is not applied to a line headed by its entry. Residues count along the entry.
UniProt P60852: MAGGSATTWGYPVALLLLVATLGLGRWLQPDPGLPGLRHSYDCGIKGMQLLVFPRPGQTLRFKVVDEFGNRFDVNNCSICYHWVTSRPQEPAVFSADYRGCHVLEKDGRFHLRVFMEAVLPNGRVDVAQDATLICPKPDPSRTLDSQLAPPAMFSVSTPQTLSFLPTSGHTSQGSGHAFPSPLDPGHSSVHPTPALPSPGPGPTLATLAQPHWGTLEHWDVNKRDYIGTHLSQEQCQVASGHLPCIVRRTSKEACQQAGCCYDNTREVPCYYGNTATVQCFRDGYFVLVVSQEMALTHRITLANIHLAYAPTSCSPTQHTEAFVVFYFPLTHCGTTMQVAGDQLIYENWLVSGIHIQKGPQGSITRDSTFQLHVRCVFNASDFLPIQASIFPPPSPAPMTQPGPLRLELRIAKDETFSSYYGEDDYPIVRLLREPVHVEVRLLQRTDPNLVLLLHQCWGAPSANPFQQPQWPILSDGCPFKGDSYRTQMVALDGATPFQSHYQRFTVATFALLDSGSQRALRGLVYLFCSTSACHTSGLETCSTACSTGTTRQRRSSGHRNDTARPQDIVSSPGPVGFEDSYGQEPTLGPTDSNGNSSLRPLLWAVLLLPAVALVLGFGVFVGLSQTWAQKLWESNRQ
UniProt Q05996, residues 39-640: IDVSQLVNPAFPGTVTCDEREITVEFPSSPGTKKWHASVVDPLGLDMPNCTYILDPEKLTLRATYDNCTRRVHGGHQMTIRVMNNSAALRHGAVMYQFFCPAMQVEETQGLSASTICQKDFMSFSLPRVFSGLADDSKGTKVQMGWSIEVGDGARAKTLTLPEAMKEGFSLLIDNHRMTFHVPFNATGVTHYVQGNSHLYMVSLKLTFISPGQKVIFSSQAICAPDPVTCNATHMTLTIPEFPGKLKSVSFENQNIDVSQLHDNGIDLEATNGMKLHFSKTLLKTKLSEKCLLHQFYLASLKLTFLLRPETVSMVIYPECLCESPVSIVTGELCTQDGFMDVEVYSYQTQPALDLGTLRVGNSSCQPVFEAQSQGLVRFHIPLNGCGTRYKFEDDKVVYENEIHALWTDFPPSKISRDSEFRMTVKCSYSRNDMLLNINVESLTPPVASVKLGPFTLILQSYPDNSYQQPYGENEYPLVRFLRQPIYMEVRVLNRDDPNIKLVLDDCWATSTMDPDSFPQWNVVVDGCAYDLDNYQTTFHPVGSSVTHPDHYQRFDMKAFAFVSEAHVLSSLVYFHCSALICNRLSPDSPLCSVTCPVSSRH

The labels stand for the following.
B1: ZP4 (zona pellucida glycoprotein 4) (protein, UniProt Q12836 19-462)
chain: GQHKPEAPDYSSVLHCGPWSFQFAVNLNQEATSPPVLIAWDNQGLLHELQNDSDCGTWIRKGPGSSVVLEATYSSCYVTEWDSHYIMPVGVEGAGAAEHKVVTERKLLKCPMDLLARDAPDTDWCDSIPARDRLPCAPSPISRGDCEGLGCCYSSEEVNSCYYGNTVTLHCTREGHFSIAVSRNVTSPPLLLDSVRLALRNDSACNPVMATQAFVLFQFPFTSCGTTRQITGDRAVYENELVATRDVKNGSRGSVTRDSIFRLHVSCSYSVSSNSLPINVQVFTLPPPFPETQPGPLTLELQIAKDKNYGSYYGVGDYPVVKLLRDPIYVEVSILHRTDPYLGLLLQQCWATPSTDPLSQPQWPILVKGCPYIGDNYQTQLIPVQKALDLPFPSHHQRFSIFTFSFVNPTVEKQALRGPVHLHCSVSVCQPAETPSCVVTCPDL
B2: ZP3 (zona pellucida glycoprotein 3) (protein, UniProt P21754 23-350)
chain: QPLWLLQGGASHPETSVQPVLVECQEATLMVMVSKDLFGTGKLIRAADLTLGPEACEPLVSMDTEDVVRFEVGLHECGNSMQVTDDALVYSTFLLHDPRPVGNLSIVRTNRAEIPIECRYPRQGNVSSQAILPTWLPFRTTVFSEEKLTFSLRLMEENWNAEKRSPTFHLGDAAHLQAEIHTGSHVPLRLFVDHCVATPTPDQNASPYHTIVDFHGCLVDGLTDASSAFKVPRPGPDTLQFTVDVFHFANDSRNMIYITCHLKVTLAEQDPDELNKACSFSKPSNSWFPVEGSADICQCCNKGDCGTPSHSRRQPHVMSQWSRSASRN

The assay deals with ZP1^MT (I390fs404X), truncated ZP1 (human) (UniProt P60852). The assay can be described thus: co-IP.
With “ZP2 (zona pellucida glycoprotein 2) (from UniProt Q05996 39-640)”, the binding entry is “no binding”. For B1 the value was “binds”; for B2, “binds”.

Values taken from article doi:10.1101/825018.
